No constants are given. Whether binding was seen depends on the method and setting. Some entries that bind do so weakly or less than the wild type. Tags and fused reporters may be left off the sequences shown.
Experiments:
Experiment in all cases: pull-down; purified GST-occludin fusion proteins (2 μg) incubated with purified CK2 (0,25 μl), 1 h at 4°C, in 50 mM Tris/HCl pH 8.0, 50 mM KCl, 0.04% Triton X-100, 4 mM MgCl2; GSH-agarose beads; blot with anti-CK2α; both purified
[1] = biological target: T1, GST-OccC, GST fusion of the C-terminal cytoplasmic tail of human occludin (amino acids 263-523) (human) (UniProt Q16625)
T1 sequence: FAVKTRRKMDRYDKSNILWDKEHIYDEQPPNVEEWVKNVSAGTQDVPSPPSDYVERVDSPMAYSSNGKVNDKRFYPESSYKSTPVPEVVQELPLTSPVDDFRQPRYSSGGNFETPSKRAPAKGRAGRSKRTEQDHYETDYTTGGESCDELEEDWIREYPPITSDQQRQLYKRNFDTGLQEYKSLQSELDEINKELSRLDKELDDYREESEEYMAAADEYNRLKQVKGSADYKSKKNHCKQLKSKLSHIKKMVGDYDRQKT

Sequences of proteins named here, by UniProt entry; tags and fusion partners are left off. A change or cut given only in a name is not applied to a line headed by its entry.
UniProt P68400: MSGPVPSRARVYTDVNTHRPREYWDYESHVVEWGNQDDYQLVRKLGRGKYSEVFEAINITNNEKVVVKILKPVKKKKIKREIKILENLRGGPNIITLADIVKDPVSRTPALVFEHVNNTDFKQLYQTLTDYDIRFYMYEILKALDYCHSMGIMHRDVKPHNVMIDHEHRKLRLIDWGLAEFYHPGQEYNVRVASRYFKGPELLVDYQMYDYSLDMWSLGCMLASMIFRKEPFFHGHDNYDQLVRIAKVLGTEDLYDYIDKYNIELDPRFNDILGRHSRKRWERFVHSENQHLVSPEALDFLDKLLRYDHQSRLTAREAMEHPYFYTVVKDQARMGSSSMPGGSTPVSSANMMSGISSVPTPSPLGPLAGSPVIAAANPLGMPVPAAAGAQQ

[2] = biological target: T2, GST-Occ263-389, membrane proximal part of the occludin cytoplasmic domain (human) (UniProt Q16625)
T2 sequence: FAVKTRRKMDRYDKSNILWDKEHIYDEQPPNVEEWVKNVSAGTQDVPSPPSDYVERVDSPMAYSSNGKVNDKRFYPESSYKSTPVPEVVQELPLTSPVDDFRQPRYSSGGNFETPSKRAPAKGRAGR

[3] = biological target: T3, GST-Occ381-523, distal part of the occludin C-terminal cytoplasmic domain (human) (UniProt Q16625)
T3 sequence: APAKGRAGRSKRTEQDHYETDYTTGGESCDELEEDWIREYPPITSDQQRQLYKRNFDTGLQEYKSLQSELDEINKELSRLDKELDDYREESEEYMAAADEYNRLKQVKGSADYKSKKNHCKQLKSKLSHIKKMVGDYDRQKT

binding [1]: binds
binding [2]: binds
binding [3]: no binding
Substance: purified recombinant CK2 (from UniProt P68400 1-391; P67870 1-215) (complex)
